Measured values as given in article PMC6375878.

By UniProt entry, the sequences of proteins in these tests, tags left out. Residues count along the entry.
UniProt Q9BZS1, residues 1-417: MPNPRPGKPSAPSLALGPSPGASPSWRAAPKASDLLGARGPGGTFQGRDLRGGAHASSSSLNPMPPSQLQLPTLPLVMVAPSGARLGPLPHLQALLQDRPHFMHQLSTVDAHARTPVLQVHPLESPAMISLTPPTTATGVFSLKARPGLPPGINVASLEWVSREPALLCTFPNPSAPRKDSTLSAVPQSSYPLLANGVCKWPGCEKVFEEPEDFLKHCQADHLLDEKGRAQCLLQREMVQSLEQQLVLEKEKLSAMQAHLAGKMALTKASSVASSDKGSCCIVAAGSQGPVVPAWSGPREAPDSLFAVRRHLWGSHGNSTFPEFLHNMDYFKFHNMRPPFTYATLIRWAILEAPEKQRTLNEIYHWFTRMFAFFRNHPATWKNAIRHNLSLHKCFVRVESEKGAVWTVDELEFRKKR
UniProt O14744: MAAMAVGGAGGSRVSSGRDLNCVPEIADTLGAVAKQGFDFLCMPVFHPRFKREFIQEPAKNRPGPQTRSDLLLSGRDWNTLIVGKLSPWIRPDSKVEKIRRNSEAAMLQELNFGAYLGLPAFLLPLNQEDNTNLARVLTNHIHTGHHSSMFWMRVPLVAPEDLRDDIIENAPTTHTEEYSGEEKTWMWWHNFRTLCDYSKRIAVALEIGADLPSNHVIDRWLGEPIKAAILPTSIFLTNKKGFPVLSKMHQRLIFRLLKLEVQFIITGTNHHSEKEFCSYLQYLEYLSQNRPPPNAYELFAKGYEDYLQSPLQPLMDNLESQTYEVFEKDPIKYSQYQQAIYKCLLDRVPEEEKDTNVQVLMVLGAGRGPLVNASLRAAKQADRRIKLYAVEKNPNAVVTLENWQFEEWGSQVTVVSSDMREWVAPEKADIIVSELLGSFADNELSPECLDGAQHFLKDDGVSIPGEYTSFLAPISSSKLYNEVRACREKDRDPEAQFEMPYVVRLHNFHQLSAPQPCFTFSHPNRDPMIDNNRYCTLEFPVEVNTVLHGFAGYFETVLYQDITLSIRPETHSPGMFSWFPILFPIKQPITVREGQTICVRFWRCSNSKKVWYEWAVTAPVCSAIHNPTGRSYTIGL

Biological target: FLAG-FOXP3 (human) (UniProt Q9BZS1)
Assay: affinity purification with mass spectrometry; 293T transfected with FLAG-Foxp3 or empty vector; high salt lysis buffer (20 mM Tris-Cl pH 7.5, 420 mM NaCl, 1% TritonX-100); anti-FLAG agarose beads overnight at 4°C; SDS-PAGE, silver stain, specific bands cut, LC-MS/MS

binding: binds
Substance: protein arginine methyltransferase (PRMT5), endogenous in 293T cells (from UniProt O14744 1-637) (enzyme)

No constants are given. Whether binding was seen depends on the method and setting. Binding seen in cells or lysates may run through a third protein. A yes stands for co-enrichment or nearness to the bait. Other partners may have been found.
